Test results reported in PubChem BioAssay AID595 (National Center for Advancing Translational Sciences (NCATS), 2007).
The campaign covered roughly 71,000 compounds. About 310 (0.44%) were called active. The inconclusive results got no clear call from the source; some entries with a clear call stand among them for comparison. The call rests on the fitted dose curve; in most records, active means well fitted curve in either direction with a large enough effect; inconclusive means small, poorly fitted or top-dose-only effect, or another doubt; inactive means flat fitted curve, though single readings scatter. Where the call is inconclusive, the potency comes from a doubtful curve fit.

System: Hsp90 C-terminal peptide / TPR2A (Hop) interaction, human
Test: qHTS Assay for Disrupters of an Hsp90 Co-Chaperone Interaction
Settings: AlphaScreen TPR2A-His6 binding biotin-Hsp90 C-terminal peptide; activity change, negative = inhibition: at 57 µM (top of the series) unless noted
On the % scale 0 is the no-effect control and ±100 the full control effect; potency means the concentration at half of the fitted maximal effect.

Structure (SMILES)	activity change, negative = inhibition	Potency
COCCN(C(=O)C(F)(F)F)C(C(=O)NC1CCCCC1)c1ccco1 (stereo not given)	inconclusive: 37.8%	
Cc1ccc(-c2oc3ccccc3c(=O)c2O)cc1	inactive: 1.05%	
O=C(CSc1ncnc2nc[nH]c12)N1CCN(c2ccc(Cl)cc2)CC1	inconclusive: 47.4%	
COCCn1c(=O)c(-c2cn(C)c3ccccc23)nc2cnc(Oc3cccc(Cl)c3)nc21	inactive: 1.98%	
COc1ccc(C(=O)Nc2c(F)c(F)c(F)c(F)c2F)c(OC)c1	inactive: -0.56%	
CCCn1c(SCC(=O)Nc2nnc(CC)s2)nc2c1c(=O)n(C)c(=O)n2C	inactive: 1.46%	
Cc1cc2c(ccc3[nH]onc32)n1	inconclusive: 42.7%	
Cc1ccc(-c2nnc(N3CCN(c4ccccn4)CC3)c3ccccc23)cc1	inconclusive: 45.3%	
CCOc1ccc(NC(=O)Nc2ccc3c(c2)N(C)C(=O)CS3)cc1	inactive: -5.63%	
CCNc1sc(C(=O)c2cccs2)c(N)c1-c1nc2ccccc2s1		inconclusive: 25.1 µM [inhibitor, partial curve]
COC(=O)c1cccc(COC(=O)c2ccccc2NC(=O)c2ccco2)c1	inconclusive: 50.9%	
CCCC[C@@H]1C[C@H]1C(NC(=O)c1ccco1)c1ccc(Cl)cc1 (stereo not given in full)		inconclusive: 31.6 µM [activator, single point]
CC(C(=O)NCc1ccc2c(c1)OCO2)N1c2cccc3cccc(c23)S1(=O)=O (stereo not given)	inactive: 15.4%	
Cc1ccccc1-c1nccc(-n2ccnc2)n1	inactive: -6.48%	
COC(=O)[C@H](C)NC(=O)Nc1ccc(OC)cc1OC	inconclusive: 45.5%	
O=C(O)CCCC(=O)NCCCc1ccccc1	inactive: -5.88% [at 11 µM]	
CN(C)CCNS(=O)(=O)c1ccc(Cl)cc1	inactive: -2.71%	
Clc1cccc2sc(N3CCN(c4ccccc4)CC3)nc12		inconclusive: 31.6 µM [activator, single point]
COc1ccccc1-c1nccc(NCc2cnc(C)cn2)n1	inactive: -8.38%	
CCCC(N)CCCCCC(=O)O (stereo not given)	inconclusive: 43.3%	
O=S(=O)(NC(=NC1CCCC1)C(F)(F)F)c1ccccc1	inconclusive: 49.3%	
CC1(C)Cc2c(c(N3CCOCC3)nc3sc(C(=O)N4CCCCC4)c(N)c23)CO1	inconclusive: 44.9% [at 2.3 µM]	
CC1CCc2cccc3c2N1c1cc(C#N)c(C#N)cc1O3 (stereo not given)		inconclusive: 3.16 µM [activator, partial curve]

Structure (SMILES)	activity change, negative = inhibition	Potency
CCOC(=O)Cc1cnc(NC(=O)Cn2nnc(-c3ccc(OCC)cc3)n2)s1	inactive: 2.84%	
CCOC(=O)CCCCC(=O)c1[nH]c(=O)[nH]c1CSc1nc(C)cc(=O)[nH]1		active: 1 µM
O=C(Nc1nc(-c2nc3ccccc3s2)cs1)C1COc2ccccc2O1 (stereo not given)	inactive: 2.71%	
c1ccc(SCCSc2ccccc2)cc1		inconclusive: 39.8 µM [activator, single point]
CCC(C)(C)c1ccc(Oc2cccc(C(=O)O)c2)cc1	inconclusive: 90.3% [at 11 µM]	
COc1cc2c(c(OC)c1OC)-c1ccc(OC)c(=O)cc1[C@H](NC(C)=O)CC2		inconclusive: 31.6 µM [inhibitor, partial curve]
COCc1nnc(NC(=O)c2ccc(S(=O)(=O)N(C)c3ccccc3)cc2)o1		inconclusive: 20 µM [inhibitor, partial curve]
Cc1occc1C(=O)Nc1ccccc1C(=O)O	inactive: 3.28%	
Cc1ccccc1NC(=O)C1CCN(c2cnccn2)CC1	inconclusive: 36.5%	
CCCn1c(=NC(=O)c2ccncc2)c(C#N)cc2c(=O)n3cccc(C)c3nc21	inactive: -1.04%	
COc1cc2c(cc1OC)C(c1cc3cc(OC)c(OC)cc3[nH]c1=O)N(C(=O)C1CC1)CC2 (stereo not given)	inconclusive: 47.2%	
CCCn1nc(NC(=O)c2cccs2)c2cc3cc(OC)ccc3nc21		inconclusive: 3.16 µM [activator]
c1ccc2c(c1)ncn2Cc1nnc2sc(-c3ccc4c(c3)OCO4)nn12	inactive: -5.25%	
O=c1c(-c2cccs2)nc2cnc(N3CCNCC3)nc2n1C1CC1	inactive: -2.43%	
CCCCOCC(O)CN1CCN(C(C)=O)CC1 (stereo not given)	inconclusive: 48.6%	
CC(C)CN1CC2(CCN(C(=O)c3cnccn3)CC2)C1	inactive: 2.02%	
CCN(CC)S(=O)(=O)c1cccc(C(=O)Nc2ccc(Cl)cn2)c1	inconclusive: 71.6%	
c1ccc(-c2cccc(N3CC4(CCNCC4)C3)c2)cc1		inconclusive: 31.6 µM [inhibitor, single point]
COCCN(C(=O)CCCC(=O)Nc1ccccn1)C(C(=O)NC1CCCCC1)c1ccc(C)cc1 (stereo not given)	inconclusive: 62.8%	
O=S(=O)(Nc1cccc2cccnc12)c1ccc(S(=O)(=O)N2CCCC2)cc1		inconclusive: 39.8 µM [inhibitor, single point]
COc1cccc(C(=O)NCC(c2cccnc2)N2CCN(c3ccccc3OC)CC2)c1 (stereo not given)	inactive: -8.72%	
c1ccc(C[n+]2cccc(-c3cc4ccccc4[nH]3)c2)cc1	inactive: -2.41% [at 11 µM]	
c1ccc2oc(NC3=NCN(CC4CCCO4)CN3)nc2c1 (stereo not given)	inconclusive: 53.5%	

Part of the list above in a different format:

| Structure (SMILES) | activity change, negative = inhibition | Potency |
| --- | --- | --- |
| CC(C)CN1CC2(CCN(C(=O)c3cnccn3)CC2)C1 | inactive: 2.02% |  |
| CCN(CC)S(=O)(=O)c1cccc(C(=O)Nc2ccc(Cl)cn2)c1 | inconclusive: 71.6% |  |
| c1ccc(-c2cccc(N3CC4(CCNCC4)C3)c2)cc1 |  | inconclusive: 31.6 µM [inhibitor, single point] |

Further records follow:

Structure (SMILES)	activity change, negative = inhibition	Potency
CCCn1c(C)nc2c(NCCN3CCOCC3)nc(C)nc21	inactive: -0.131%	
CN1CC(=O)N(C)c2ncn(Cc3ccccc3)c2C1=O	inconclusive: 51.8%	
Cc1ccc(CNC(=O)CNS(=O)(=O)c2cccc3nsnc23)cc1	inconclusive: 35.5%	
CO[C@]1(NC(=O)Cc2cccs2)C(=O)N2C(C(=O)O)=C(COC(N)=O)CS[C@H]21	inactive: 0.19% [at 26 µM]	
CC(CN1CCOCC1)OC(=O)c1ccc(Br)cc1 (stereo not given)		inconclusive: 31.6 µM [inhibitor, single point]
Cn1c(C(=O)N2CCCC(C(=O)NCc3ccc4c(c3)OCO4)C2)cc2sccc21 (stereo not given)	inconclusive: 30.9%	
CN(C)C(=O)c1ccc(-c2ccc3ncnc(NCc4cccs4)c3c2)cc1	inactive: -10.5%	
CCOC(=O)c1oc2cc(O)ccc2c(=O)c1-c1csc(C)n1	inactive: -1.06%	
O=C(Cc1c[nH]c2ccccc12)Nc1nc2ccccc2[nH]1	inconclusive: -0.777%	
O=C(c1ccccc1)N1CCCC(c2nc3c(nnn3Cc3ccccc3)c(=O)[nH]2)C1 (stereo not given)	inactive: -2.14%	
COc1ccc2c(c1)nc1n2CN(CC2CCCO2)CN1Cc1ccccc1 (stereo not given)	inactive: -3.33%	
Cn1cccc1-c1nc2ccccc2n1Cc1ccccc1	inactive: -15.2%	
CCOC(=O)C1=C(N)N(c2ccc(N3CCCCC3)cc2)C(=O)C1	inconclusive: -1.75%	
Cc1nc(SCC(=O)NCc2ccco2)c2c(C)c(C)sc2n1	inactive: -4.04%	
CCOc1ccc(C)cc1S(=O)(=O)Nc1cccnc1	inconclusive: 48.5%	
CCOC(=O)C1CCCN(Cc2nc(N)nc(Nc3ccc(C)cc3)n2)C1 (stereo not given)		inconclusive: 39.8 µM [inhibitor, single point]
Cc1nc(Nc2ccccc2)c2nc(-c3ccccc3)n(CCN3CCOCC3)c2n1	inactive: -10.9%	
O=C(O)CCC(=O)N1CCN(c2cccc(Cl)c2)CC1	inactive: -1.59%	
Cc1cccc(CNc2ccnc(-c3cccc(NS(C)(=O)=O)c3)n2)c1	inconclusive: 85.3%	
Cc1ccc2ccc3cccc4ccc1c2c34		active: 39.8 µM [activator]
CN(C)Cc1ccccc1-c1cc(NCc2ccccc2)ncn1	inactive: -1.78%	
COc1ccccc1NC(=O)N1CCN(c2cccc(C(F)(F)F)c2)CC1	inconclusive: 65.3%	
O=C(COc1ccc(Cl)cc1Cl)NCCCn1ccnc1		inconclusive: 31.6 µM [inhibitor, single point]

Structure (SMILES)	activity change, negative = inhibition	Potency
CCOC(=O)CSc1nnc(-c2cccnc2)n1Cc1ccccc1	inconclusive: 51%	
Cc1c(S(=O)(=O)N2CCN(C(=O)c3ccco3)CC2)c(=O)n(C)c(=O)n1C	inconclusive: 59.3%	
Cc1cc2c(c(=O)o1)C1(C(=O)N(C)c3ccccc31)C(C#N)=C(N)O2 (stereo not given)	inconclusive: 54.9%	
O=C(O)c1cc(-c2ccncc2)nc2ccccc12	inactive: 1.2% [at 11 µM]	
Cn1c(=O)n(CCc2ccccc2)c(=O)c2c1nc1n2CCCN1Cc1ccccc1	inactive: -3.41%	
C=CC1=C(C)C2=Cc3c(C=C)c(C)c4[n]3[Sn+2][n]3c(c(C)c(CCC(=O)O)c3=CC3=NC(=C4)C(C)=C3CCC(=O)O)=CC1=N2		active: 31.6 µM
Cc1cccc2cc(C#N)c(NCCNC(=O)NC3CCCCC3)nc12	inactive: -0.096%	
CCOC(=O)N1C(=O)c2cc(OC)ccc2S1(=O)=O	inconclusive: 71.1%	
O=C(N1CCCCC1)N1CCCN(C(=O)N2CCCCC2)CC1	inactive: 1.19%	
CN(C)S(=O)(=O)NC(c1ccccc1)c1ccccc1	inconclusive: 46.2%	
CN(C(=O)c1ccc(NC(=O)C2CC=CCC2C(=O)O)cc1)c1ccccc1 (stereo not given)	inactive: -3.97%	
Cc1sc2ncn(CC(=O)OCC(=O)NC(C)(C)C)c(=O)c2c1C	inconclusive: 76.5%	
COC(=O)c1ccc2[nH]c(C)cc(=O)c2c1	inconclusive: 35.5%	
CN1C[C@@H](O)[C@@H](O)[C@@H](O)[C@@H]1CO	inactive: -2.08%	
CC(=O)OCCN1C(=O)c2cccnc2C1=O		inconclusive: 25.1 µM [inhibitor, partial curve]
CC(C)(C)C1CCC2(CC1)C(C#N)=C(SCC(=O)NC1CCCCC1)NC(=O)C2C#N (stereo not given)	inactive: -5.39%	
CC1=CC(C#N)(C#N)C(C#N)(C#N)C(c2ccccc2)N1 (stereo not given)		active: 3.16 µM
O=C(NCc1ccccn1)c1ccc(/C=N/O)nc1		inconclusive: 12.6 µM [inhibitor, partial curve]
CC(=O)c1cccc(NC(=O)C2CCCN(S(=O)(=O)c3ccccc3)C2)c1 (stereo not given)	inconclusive: 49.3%	
COC(=O)c1ccc(Nc2nc(C)cc(=O)[nH]2)cc1	inactive: -10.1%	
CCN(CC)[C@@H](C)CN1c2ccccc2Sc2ccccc21	inactive: -11.4% [at 26 µM]	
